Assay results as given in the supplement of paper PMC10032668.
Some of the results follow. The list holds hits alone, and they repeat only in part.

Chains of the proteins cited; added tags and fusions are not shown.
C3, P01024, UniProt P01024, whole entry: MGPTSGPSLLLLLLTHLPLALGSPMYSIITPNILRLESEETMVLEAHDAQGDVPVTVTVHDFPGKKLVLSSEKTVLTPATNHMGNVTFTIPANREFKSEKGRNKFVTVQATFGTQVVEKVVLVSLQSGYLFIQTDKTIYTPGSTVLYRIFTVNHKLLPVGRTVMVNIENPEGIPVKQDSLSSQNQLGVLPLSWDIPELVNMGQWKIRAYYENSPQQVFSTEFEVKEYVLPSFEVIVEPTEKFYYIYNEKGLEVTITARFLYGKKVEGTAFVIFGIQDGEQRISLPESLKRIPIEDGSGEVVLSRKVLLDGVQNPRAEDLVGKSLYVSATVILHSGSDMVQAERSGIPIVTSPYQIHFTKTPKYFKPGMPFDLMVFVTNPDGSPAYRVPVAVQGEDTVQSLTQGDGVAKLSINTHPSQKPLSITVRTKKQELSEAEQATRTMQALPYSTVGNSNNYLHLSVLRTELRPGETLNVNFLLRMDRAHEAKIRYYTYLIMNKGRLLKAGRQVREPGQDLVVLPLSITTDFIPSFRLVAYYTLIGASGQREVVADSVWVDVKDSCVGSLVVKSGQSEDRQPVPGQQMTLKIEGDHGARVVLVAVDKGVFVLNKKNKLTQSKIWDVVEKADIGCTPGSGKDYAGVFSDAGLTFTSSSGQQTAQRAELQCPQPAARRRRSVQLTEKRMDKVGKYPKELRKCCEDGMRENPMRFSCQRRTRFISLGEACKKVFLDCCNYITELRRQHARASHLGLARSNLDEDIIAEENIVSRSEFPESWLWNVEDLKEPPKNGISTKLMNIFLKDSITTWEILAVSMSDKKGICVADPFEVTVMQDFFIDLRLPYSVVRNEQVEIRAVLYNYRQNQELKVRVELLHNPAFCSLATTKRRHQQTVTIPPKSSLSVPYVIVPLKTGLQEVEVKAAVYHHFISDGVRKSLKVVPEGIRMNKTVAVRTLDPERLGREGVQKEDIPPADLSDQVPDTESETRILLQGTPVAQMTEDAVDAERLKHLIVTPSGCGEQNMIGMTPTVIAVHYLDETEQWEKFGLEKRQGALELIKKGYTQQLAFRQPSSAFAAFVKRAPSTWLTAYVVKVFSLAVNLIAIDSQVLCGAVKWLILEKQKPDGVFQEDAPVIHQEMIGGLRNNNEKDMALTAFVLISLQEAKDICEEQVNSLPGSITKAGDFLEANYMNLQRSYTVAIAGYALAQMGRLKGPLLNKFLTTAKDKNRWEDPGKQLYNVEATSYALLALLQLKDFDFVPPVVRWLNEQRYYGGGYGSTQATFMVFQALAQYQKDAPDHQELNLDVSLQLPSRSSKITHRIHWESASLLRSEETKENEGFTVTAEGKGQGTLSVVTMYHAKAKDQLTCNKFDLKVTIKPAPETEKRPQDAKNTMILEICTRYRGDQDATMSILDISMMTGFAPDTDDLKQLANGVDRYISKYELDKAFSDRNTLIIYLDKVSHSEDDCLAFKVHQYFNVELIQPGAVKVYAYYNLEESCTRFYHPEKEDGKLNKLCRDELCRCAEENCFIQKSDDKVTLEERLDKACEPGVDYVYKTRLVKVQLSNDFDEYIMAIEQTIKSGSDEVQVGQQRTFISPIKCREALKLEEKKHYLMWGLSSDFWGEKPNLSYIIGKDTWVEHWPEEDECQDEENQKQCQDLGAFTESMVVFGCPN
FABP5, Q01469, UniProt Q01469, whole entry: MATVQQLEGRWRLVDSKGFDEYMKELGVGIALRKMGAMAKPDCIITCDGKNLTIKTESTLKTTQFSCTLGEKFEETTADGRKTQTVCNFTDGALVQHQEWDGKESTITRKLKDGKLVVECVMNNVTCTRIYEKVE
TRAPPC2L, Q9UL33, UniProt Q9UL33, whole entry: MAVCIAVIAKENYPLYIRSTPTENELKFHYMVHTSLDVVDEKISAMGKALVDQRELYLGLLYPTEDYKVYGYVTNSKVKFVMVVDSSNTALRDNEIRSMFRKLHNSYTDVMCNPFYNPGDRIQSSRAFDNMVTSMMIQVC
CNOT2, Q9NZN8, UniProt Q9NZN8, whole entry: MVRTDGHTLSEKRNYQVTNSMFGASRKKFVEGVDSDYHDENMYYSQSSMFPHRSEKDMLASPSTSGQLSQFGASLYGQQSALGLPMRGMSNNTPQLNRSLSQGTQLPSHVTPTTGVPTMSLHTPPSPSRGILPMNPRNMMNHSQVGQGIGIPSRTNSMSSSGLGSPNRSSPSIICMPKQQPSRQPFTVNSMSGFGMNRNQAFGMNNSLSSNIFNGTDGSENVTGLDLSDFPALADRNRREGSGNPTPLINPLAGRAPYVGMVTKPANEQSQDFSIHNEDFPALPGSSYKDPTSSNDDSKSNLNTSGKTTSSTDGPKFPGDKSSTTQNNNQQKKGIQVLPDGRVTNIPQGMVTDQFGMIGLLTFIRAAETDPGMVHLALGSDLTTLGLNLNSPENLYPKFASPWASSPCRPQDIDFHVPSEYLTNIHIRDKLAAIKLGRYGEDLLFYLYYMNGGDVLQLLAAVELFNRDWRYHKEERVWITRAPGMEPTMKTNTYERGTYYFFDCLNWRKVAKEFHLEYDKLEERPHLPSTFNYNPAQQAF
DDX39B, Q13838, UniProt Q13838, whole entry: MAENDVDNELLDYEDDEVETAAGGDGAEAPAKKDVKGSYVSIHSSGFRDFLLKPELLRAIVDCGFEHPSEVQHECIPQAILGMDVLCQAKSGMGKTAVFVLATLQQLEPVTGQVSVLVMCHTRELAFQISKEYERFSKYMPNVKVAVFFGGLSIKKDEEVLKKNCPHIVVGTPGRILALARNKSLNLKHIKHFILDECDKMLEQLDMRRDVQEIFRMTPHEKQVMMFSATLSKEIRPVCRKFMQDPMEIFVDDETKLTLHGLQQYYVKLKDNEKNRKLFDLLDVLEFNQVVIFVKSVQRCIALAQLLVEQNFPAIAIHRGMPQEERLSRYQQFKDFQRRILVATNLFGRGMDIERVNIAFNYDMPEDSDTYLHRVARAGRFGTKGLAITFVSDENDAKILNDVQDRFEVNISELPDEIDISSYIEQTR
ENO1, P06733, UniProt P06733, whole entry: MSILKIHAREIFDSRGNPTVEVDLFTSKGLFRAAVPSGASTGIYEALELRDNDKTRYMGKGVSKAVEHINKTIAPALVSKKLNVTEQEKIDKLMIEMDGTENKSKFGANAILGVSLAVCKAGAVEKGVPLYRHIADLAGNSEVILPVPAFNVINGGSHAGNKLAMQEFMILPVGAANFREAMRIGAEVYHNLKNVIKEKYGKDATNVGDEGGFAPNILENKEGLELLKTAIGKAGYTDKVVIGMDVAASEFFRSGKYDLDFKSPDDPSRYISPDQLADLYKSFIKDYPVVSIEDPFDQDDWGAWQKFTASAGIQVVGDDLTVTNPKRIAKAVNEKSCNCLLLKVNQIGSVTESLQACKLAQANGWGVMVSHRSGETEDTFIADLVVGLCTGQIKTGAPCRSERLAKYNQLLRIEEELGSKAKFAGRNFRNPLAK
NASP, P49321, UniProt P49321, whole entry: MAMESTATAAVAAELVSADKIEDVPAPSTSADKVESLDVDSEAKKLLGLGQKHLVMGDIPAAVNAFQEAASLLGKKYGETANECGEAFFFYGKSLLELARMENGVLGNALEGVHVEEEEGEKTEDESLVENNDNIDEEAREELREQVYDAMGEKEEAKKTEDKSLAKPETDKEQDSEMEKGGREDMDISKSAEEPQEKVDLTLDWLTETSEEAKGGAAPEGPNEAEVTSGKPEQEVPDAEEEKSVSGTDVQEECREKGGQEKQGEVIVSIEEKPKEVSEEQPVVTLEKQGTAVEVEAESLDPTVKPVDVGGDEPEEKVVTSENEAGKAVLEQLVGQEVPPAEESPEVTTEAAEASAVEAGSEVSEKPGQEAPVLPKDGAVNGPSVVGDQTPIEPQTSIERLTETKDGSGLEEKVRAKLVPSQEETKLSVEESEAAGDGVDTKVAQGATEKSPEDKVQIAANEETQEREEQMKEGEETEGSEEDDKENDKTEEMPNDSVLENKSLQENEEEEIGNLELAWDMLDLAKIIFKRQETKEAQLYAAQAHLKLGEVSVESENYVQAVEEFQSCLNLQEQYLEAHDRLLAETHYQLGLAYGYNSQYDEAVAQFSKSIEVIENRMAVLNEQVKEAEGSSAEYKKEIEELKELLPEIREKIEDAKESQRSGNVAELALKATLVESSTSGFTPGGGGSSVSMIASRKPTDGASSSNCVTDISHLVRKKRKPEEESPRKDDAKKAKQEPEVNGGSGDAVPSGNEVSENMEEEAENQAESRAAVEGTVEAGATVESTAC
NFRKB, Q6P4R8, UniProt Q6P4R8, whole entry: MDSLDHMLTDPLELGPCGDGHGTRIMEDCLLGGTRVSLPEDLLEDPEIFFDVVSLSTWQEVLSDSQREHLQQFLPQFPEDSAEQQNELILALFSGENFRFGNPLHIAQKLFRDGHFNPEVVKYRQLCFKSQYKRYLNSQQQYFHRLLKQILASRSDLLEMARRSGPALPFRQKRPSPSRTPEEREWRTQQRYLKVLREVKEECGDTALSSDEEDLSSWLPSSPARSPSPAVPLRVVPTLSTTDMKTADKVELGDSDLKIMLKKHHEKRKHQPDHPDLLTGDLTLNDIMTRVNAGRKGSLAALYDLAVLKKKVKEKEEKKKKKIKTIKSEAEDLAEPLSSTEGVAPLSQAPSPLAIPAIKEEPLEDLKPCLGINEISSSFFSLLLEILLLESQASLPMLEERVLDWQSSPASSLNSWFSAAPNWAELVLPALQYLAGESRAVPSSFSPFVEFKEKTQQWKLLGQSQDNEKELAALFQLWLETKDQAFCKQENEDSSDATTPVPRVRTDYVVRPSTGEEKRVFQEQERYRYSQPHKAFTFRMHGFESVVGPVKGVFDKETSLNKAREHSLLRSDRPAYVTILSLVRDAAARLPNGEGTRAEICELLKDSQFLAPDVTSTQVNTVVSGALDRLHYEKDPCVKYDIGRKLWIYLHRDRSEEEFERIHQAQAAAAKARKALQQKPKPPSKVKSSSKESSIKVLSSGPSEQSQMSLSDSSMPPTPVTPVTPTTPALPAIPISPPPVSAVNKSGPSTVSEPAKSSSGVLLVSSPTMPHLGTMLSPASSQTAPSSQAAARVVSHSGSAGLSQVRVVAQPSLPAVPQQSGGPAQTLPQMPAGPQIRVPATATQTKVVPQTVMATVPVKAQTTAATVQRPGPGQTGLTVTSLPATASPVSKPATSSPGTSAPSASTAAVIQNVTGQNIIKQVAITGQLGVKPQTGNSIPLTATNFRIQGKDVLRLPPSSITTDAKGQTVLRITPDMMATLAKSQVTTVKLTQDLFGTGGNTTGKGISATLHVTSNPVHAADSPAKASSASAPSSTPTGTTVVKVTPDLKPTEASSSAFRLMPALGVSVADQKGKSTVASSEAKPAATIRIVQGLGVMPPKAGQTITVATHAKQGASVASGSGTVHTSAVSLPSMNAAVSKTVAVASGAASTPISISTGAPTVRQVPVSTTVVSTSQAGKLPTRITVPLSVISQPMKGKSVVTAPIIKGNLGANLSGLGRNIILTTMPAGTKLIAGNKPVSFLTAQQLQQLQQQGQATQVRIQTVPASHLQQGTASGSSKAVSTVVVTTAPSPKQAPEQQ
SMARCA5, O60264, UniProt O60264, whole entry: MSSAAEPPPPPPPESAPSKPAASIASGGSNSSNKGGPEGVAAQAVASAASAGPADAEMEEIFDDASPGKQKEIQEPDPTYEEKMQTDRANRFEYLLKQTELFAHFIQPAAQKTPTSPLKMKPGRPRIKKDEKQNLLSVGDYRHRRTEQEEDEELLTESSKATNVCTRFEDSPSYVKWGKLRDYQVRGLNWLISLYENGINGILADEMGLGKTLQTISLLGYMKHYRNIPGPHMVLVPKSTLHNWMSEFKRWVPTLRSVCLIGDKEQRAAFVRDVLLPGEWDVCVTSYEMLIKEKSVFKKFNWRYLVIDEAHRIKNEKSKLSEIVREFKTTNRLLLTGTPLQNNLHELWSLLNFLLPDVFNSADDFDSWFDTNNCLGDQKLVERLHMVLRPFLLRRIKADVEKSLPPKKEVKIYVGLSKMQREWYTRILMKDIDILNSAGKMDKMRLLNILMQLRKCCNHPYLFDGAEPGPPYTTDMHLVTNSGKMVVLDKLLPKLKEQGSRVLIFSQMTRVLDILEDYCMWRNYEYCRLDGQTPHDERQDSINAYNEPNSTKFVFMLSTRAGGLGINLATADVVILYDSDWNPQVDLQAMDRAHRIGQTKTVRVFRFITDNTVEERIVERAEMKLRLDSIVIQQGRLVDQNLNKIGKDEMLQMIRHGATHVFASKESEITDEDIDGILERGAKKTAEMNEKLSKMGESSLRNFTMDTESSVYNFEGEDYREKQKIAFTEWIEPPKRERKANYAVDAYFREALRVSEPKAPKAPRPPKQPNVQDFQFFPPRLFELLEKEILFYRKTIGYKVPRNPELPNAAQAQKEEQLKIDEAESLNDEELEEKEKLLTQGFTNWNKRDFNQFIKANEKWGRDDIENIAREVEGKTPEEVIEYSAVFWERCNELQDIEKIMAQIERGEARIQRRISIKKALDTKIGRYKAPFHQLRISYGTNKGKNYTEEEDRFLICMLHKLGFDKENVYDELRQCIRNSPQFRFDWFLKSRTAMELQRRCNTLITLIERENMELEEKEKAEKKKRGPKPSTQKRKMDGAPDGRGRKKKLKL

Assays:
Assay in all cases: PRISMA enrichment of interactor (LFQ) in peptide spot vs all other peptide spots (log2 fold change); higher = stronger / more specific binding of the interactor to the peptide
BAZ1B, Q9UIG0 = molecular target: BAZ1B, Q9UIG0
Procedure: (§1)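 PRISMA: 15-aa overlapping tiles (offset 8 aa) of 60 microproteins, plus SOS1/GLUT1 control peptides, were spot-synthesized on cellulose membranes in triplicate. Membranes were incubated with benzonase-treated HEK293T lysate, and bound proteins were identified by LC-MS/MS with LFQ. Enrichment is the log2 fold change of each protein in one spot versus all other spots. Only interactors passing the significance cutoff are listed.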

C19orf53, Q9UNZ5 = molecular target: C19orf53, Q9UNZ5
Procedure: as §1

C3, P01024 = molecular target: C3, P01024
Procedure: as §1

CEP290, O15078 = molecular target: CEP290, O15078
Procedure: as §1

CHD1, O14646 = molecular target: CHD1, O14646
Procedure: as §1

COL4A3BP, Q9Y5P4 = molecular target: COL4A3BP, Q9Y5P4
Procedure: as §1

EARS2, Q5JPH6 = molecular target: EARS2, Q5JPH6
Procedure: as §1

EHD4, Q9H223 = molecular target: EHD4, Q9H223
Procedure: as §1

EMG1, Q92979 = molecular target: EMG1, Q92979
Procedure: as §1

FABP5, Q01469 = molecular target: FABP5, Q01469
Procedure: as §1

HP, P00738 = molecular target: HP, P00738
Procedure: as §1

IDH3B, O43837 = molecular target: IDH3B, O43837
Procedure: as §1

MRPL41, Q8IXM3 = molecular target: MRPL41, Q8IXM3
Procedure: as §1

MRPS15, P82914 = molecular target: MRPS15, P82914
Procedure: as §1

MRPS5, P82675 = molecular target: MRPS5, P82675
Procedure: as §1

NUP93, Q8N1F7 = molecular target: NUP93, Q8N1F7
Procedure: as §1

PRDX2, P32119 = molecular target: PRDX2, P32119
Procedure: as §1

PRDX3, P30048 = molecular target: PRDX3, P30048
Procedure: as §1

SERF2, P84101 = molecular target: SERF2, P84101
Procedure: as §1

SF3B4, Q15427 = molecular target: SF3B4, Q15427
Procedure: as §1

TACO1, Q9BSH4 = molecular target: TACO1, Q9BSH4
Procedure: as §1

TEX10, Q9NXF1 = molecular target: TEX10, Q9NXF1
Procedure: as §1

TFB2M, Q9H5Q4 = molecular target: TFB2M, Q9H5Q4
Procedure: as §1

TRAPPC2L, Q9UL33 = molecular target: TRAPPC2L, Q9UL33
Procedure: as §1

FAM32A, Q9Y421 = molecular target: FAM32A, Q9Y421
Procedure: as §1

HSD17B12, Q53GQ0 = molecular target: HSD17B12, Q53GQ0
Procedure: as §1

ITPA, Q9BY32 = molecular target: ITPA, Q9BY32
Procedure: as §1

MRPS23, Q9Y3D9 = molecular target: MRPS23, Q9Y3D9
Procedure: as §1

SRI, P30626 = molecular target: SRI, P30626
Procedure: as §1

BCAS2, O75934 = molecular target: BCAS2, O75934
Procedure: as §1

CNOT2, Q9NZN8 = molecular target: CNOT2, Q9NZN8
Procedure: as §1

COPB1, P53618 = molecular target: COPB1, P53618
Procedure: as §1

DDX39B, Q13838 = molecular target: DDX39B, Q13838
Procedure: as §1

ENO1, P06733 = molecular target: ENO1, P06733
Procedure: as §1

ERAL1, O75616 = molecular target: ERAL1, O75616
Procedure: as §1

NAMPT, P43490 = molecular target: NAMPT, P43490
Procedure: as §1

NASP, P49321 = molecular target: NASP, P49321
Procedure: as §1

NFRKB, Q6P4R8 = molecular target: NFRKB, Q6P4R8
Procedure: as §1

PAF1, Q8N7H5 = molecular target: PAF1, Q8N7H5
Procedure: as §1

POLR2J3, Q9H1A7 = molecular target: POLR2J3, Q9H1A7
Procedure: as §1

POP1, Q99575 = molecular target: POP1, Q99575
Procedure: as §1

RPS17, P08708 = molecular target: RPS17, P08708
Procedure: as §1

RRP1B, Q14684 = molecular target: RRP1B, Q14684
Procedure: as §1

SMARCA5, O60264 = molecular target: SMARCA5, O60264
Procedure: as §1

TOR1AIP1, Q5JTV8 = molecular target: TOR1AIP1, Q5JTV8
Procedure: as §1

XPO7, Q9UIA9 = molecular target: XPO7, Q9UIA9
Procedure: as §1

XRCC6, P12956 = molecular target: XRCC6, P12956
Procedure: as §1

Binder: AVAECLMDSYSLDVH [PVT1]
- PRISMA enrichment of interactor (log2) (BAZ1B, Q9UIG0): 5.53
- PRISMA enrichment of interactor (log2) (C19orf53, Q9UNZ5): 7.95
- PRISMA enrichment of interactor (log2) (C3, P01024): 5.39
- PRISMA enrichment of interactor (log2) (CEP290, O15078): 6.3
- PRISMA enrichment of interactor (log2) (CHD1, O14646): 5.31
- PRISMA enrichment of interactor (log2) (COL4A3BP, Q9Y5P4): 5.27
- PRISMA enrichment of interactor (log2) (EARS2, Q5JPH6): 7.62
- PRISMA enrichment of interactor (log2) (EHD4, Q9H223): 6.1
- PRISMA enrichment of interactor (log2) (EMG1, Q92979): 5.72
- PRISMA enrichment of interactor (log2) (FABP5, Q01469): 5.58
- PRISMA enrichment of interactor (log2) (HP, P00738): 5.31
- PRISMA enrichment of interactor (log2) (IDH3B, O43837): 6.79
- PRISMA enrichment of interactor (log2) (MRPL41, Q8IXM3): 5.3
- PRISMA enrichment of interactor (log2) (MRPS15, P82914): 5.92
- PRISMA enrichment of interactor (log2) (MRPS5, P82675): 10.9
- PRISMA enrichment of interactor (log2) (NUP93, Q8N1F7): 5.58
- PRISMA enrichment of interactor (log2) (PRDX2, P32119): 7.12
- PRISMA enrichment of interactor (log2) (PRDX3, P30048): 5.08
- PRISMA enrichment of interactor (log2) (SERF2, P84101): 5.81
- PRISMA enrichment of interactor (log2) (SF3B4, Q15427): 4.4
- PRISMA enrichment of interactor (log2) (TACO1, Q9BSH4): 5.79
- PRISMA enrichment of interactor (log2) (TEX10, Q9NXF1): 6.65
- PRISMA enrichment of interactor (log2) (TFB2M, Q9H5Q4): 4.92
- PRISMA enrichment of interactor (log2) (TRAPPC2L, Q9UL33): 4.47

Binder: MLAEIHPKAGLQSLQ [CRNDE]
- PRISMA enrichment of interactor (log2) (BAZ1B, Q9UIG0): 5.1
- PRISMA enrichment of interactor (log2) (FAM32A, Q9Y421): 5.34
- PRISMA enrichment of interactor (log2) (HSD17B12, Q53GQ0): 5.57
- PRISMA enrichment of interactor (log2) (ITPA, Q9BY32): 7.21
- PRISMA enrichment of interactor (log2) (MRPS23, Q9Y3D9): 4.06
- PRISMA enrichment of interactor (log2) (SRI, P30626): 4.83

Binder: CPRLLQPLLGLMGTG [ABR]
- PRISMA enrichment of interactor (log2) (BCAS2, O75934): 4.89
- PRISMA enrichment of interactor (log2) (CNOT2, Q9NZN8): 7.93
- PRISMA enrichment of interactor (log2) (COPB1, P53618): 6.23
- PRISMA enrichment of interactor (log2) (DDX39B, Q13838): 7.37
- PRISMA enrichment of interactor (log2) (ENO1, P06733): 5.4
- PRISMA enrichment of interactor (log2) (ERAL1, O75616): 4.93
- PRISMA enrichment of interactor (log2) (NAMPT, P43490): 7.47
- PRISMA enrichment of interactor (log2) (NASP, P49321): 5.13
- PRISMA enrichment of interactor (log2) (NFRKB, Q6P4R8): 8.22
- PRISMA enrichment of interactor (log2) (PAF1, Q8N7H5): 7.38
- PRISMA enrichment of interactor (log2) (POLR2J3, Q9H1A7): 4.95
- PRISMA enrichment of interactor (log2) (POP1, Q99575): 9.95
- PRISMA enrichment of interactor (log2) (RPS17, P08708): 4.61
- PRISMA enrichment of interactor (log2) (RRP1B, Q14684): 4.44
- PRISMA enrichment of interactor (log2) (SMARCA5, O60264): 6.36
- PRISMA enrichment of interactor (log2) (TOR1AIP1, Q5JTV8): 6.66
- PRISMA enrichment of interactor (log2) (XPO7, Q9UIA9): 6.35
- PRISMA enrichment of interactor (log2) (XRCC6, P12956): 5.33
